Paper PMC5546437
No constants are given. Whether binding was seen depends on the method and setting. Binding seen in cells or lysates may run through a third protein. Some results given as binding are weak or reduced against the parent protein; the word gives no strength.

Chains of the proteins cited; added tags and fusions are not shown.
UniProt P38398: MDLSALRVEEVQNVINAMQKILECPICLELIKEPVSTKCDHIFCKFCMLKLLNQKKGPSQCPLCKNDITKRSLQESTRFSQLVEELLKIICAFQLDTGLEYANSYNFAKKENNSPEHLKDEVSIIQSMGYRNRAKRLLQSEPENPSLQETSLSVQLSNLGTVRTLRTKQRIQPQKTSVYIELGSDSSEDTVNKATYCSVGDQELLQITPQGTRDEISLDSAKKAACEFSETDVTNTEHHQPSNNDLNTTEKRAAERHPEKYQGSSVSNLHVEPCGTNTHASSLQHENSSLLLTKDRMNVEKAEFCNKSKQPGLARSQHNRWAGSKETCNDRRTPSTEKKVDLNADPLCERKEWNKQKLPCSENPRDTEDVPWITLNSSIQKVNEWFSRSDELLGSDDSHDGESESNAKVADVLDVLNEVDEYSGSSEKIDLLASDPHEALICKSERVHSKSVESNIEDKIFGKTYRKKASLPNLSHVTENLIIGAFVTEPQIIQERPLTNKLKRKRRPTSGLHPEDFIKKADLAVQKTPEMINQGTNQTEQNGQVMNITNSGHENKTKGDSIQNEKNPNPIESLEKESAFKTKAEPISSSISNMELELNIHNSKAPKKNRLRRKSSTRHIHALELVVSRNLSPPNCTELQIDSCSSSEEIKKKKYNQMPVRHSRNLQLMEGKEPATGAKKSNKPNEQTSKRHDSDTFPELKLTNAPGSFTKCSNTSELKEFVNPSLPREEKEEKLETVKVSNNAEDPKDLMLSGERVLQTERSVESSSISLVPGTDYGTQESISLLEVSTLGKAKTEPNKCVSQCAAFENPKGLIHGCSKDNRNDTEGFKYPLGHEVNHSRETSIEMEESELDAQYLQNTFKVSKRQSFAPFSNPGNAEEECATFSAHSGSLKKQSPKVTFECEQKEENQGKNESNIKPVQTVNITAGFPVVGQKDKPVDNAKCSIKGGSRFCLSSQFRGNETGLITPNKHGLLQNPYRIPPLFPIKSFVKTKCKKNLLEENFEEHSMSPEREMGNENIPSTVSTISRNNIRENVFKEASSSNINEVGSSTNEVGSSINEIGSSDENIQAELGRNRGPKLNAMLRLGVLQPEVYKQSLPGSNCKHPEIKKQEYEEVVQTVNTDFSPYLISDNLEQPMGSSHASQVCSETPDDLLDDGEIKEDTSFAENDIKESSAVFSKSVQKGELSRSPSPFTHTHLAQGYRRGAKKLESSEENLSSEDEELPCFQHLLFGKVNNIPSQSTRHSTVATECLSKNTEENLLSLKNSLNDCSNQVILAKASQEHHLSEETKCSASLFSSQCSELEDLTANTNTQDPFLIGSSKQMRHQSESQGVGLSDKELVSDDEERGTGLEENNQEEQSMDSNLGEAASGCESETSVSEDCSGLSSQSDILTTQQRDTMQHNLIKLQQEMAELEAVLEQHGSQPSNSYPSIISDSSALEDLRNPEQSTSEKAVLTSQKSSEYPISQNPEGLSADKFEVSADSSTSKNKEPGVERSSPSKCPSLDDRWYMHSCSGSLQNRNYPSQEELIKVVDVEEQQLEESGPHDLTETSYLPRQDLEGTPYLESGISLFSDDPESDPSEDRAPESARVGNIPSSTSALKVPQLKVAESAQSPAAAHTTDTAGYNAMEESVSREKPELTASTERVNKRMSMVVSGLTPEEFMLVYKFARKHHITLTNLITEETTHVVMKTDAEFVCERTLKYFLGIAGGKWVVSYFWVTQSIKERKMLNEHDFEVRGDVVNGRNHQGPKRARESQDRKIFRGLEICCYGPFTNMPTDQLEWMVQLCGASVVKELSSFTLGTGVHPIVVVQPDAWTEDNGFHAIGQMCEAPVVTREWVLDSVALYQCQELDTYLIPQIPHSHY

Target: BRCA1, endogenous in HCT-15 cells (human (endogenous in HCT-15)) (UniProt P38398)
Experiment: co-IP; lysates of control and CPT-treated (5 uM SN-38) HCT-15 cells, endogenous proteins; immunoprecipitation with anti-BRCA1, anti-topoI or IgG, then immunoblot

DNA topoisomerase I (topoI), endogenous in HCT-15 cells (from UniProt P11387 1-765) (enzyme)
binding: binds
